According to patent US20180209966A1, “FLUORESCENCE POLARIZATION IMMUNOASSAY METHOD FOR DETECTING CARBARYL” (priority 2017, published 2018):

Test: recovery rate after adding carbaryl to the strawberry matrix (FPIA)
Details: n = 3

CNC(=O)Oc1cccc2ccccc12 [carbaryl]
Recovered (added 50 μg/kg): 49.2 µg/kg
Recovered (added 100 μg/kg): 105.6 µg/kg
Recovered (added 200 μg/kg): 180.5 µg/kg
